The assay in a line: qHTS Assay for Lipid Storage Modulators in Drosophila S3 Cells.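 As to cell number change: cells counted by Cell Tracker Red CMTPX staining in the red channel.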 Particulars: BODIPY lipid droplet fluorescence, 18-24 h; for cell number change: measured here: cell count max response, cells fed with added oleic acid. An outline of the steps: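 Drosophila S3 cells loaded with oleic acid (400 uM, as added) and compounds at several concentrations; lipid droplets imaged by 488-nm laser-scanning cytometry, 500–530 nm intensity and object ratio to cell channel. Percent activity normalized to 20 uM Triacsin C.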
In general terms: qHTS replaces the single test concentration by a dilution series.

[1] abbreviates: measured here: cell number channel AC50, cells fed with added oleic acid.
[2] abbreviates: measured here: lipid fluorescence (Fed channel) AC50, cells fed with added oleic acid.

Some of the results follow. Further columns of the screen follow, without active or inactive calls. Compounds called inactive in the main read-out are mostly missing here. Words in brackets tell the shape of the fitted curve; partial curves, single points and poor fits give uncertain potencies.

From PubChem BioAssay AID2685 (National Center for Advancing Translational Sciences (NCATS), 2010) come the findings set out here.

A word on the AC50: it is the concentration giving half of the maximal activity seen. For the molecule `CCCCN(C)S(=O)(=O)c1ccc(C(=O)N=c2sc3cc(NC(C)=O)ccc3n2C)cc1`, the cell number change is -11.7%. Further, the AC50 under setting [1] was 0.326 µM [falling, partial curve, poor fit]. The half-maximal activity concentration (AC50) under setting [2] was 16.4 µM [rising, single point]. With `O=C(CNC(=O)COc1ccccc1)NCc1cccnc1`, the cell number change was 7.66%. Besides, the AC50 under setting [2] is 2.31 µM [rising, partial curve]. Take `COC(=O)c1cc(S(=O)(=O)NC2CCC(C)CC2)cn1C` (configuration not stated): the cell number change was -6.93%.

`O=C(NC1CCCc2ccccc21)c1cccc(S(=O)(=O)N2CCN(c3ccccc3)CC2)c1` (configuration not stated): the cell number change amounted to 31.9%. Under setting [1], the AC50 is 29.1 µM [rising, single point]. On to `CC(=O)/C=C/n1c(=S)oc2ccccc21`, for which the cell number change was -41.8%. Moreover, the half-maximal activity concentration (AC50) under setting [1] is 6.51 µM [falling, partial curve]. Under setting [2], the AC50 is 2.59 µM [falling, full curve]. For `CCOc1ccc(/C=C/C(=O)N(CC)CC(=O)Nc2ccc3c(c2)OCCO3)cc1OCC`, the half-maximal activity concentration (AC50) under setting [2] was 29.1 µM [rising, single point]. On to `O=C(Nc1ccc(C(=O)N2CCCCC2)cc1)c1ccc([N+](=O)[O-])cc1`, for which the cell number change is -6.44%. For the same molecule, the AC50 under setting [2] was 29.1 µM [rising, single point]. Consider `N#Cc1cn(-c2ccccc2)nc1C(=O)c1ccccc1`, for which the concentration at half-maximal activity (AC50) under setting [1] was 0.731 µM [rising, single point].

Take `CCc1ccc(C(=O)C[n+]2cccc3cc(OC)ccc32)cc1`: the cell number change is -7.5%. The AC50 under setting [2] was 14.6 µM [falling, single point].

Consider `CCN(CC(=O)NCc1ccc(Cl)cc1)C(=O)/C=C/c1ccc(C#N)cc1`, for which the cell number change came to 21.3%. Also, under setting [2], the AC50 was 6.51 µM [falling, single point].

Take `CCNc1oc(-c2ccccc2F)nc1S(=O)(=O)c1ccccc1`: the cell number change is -4.34%. `O=C(O)C1CC=CCC1C(=O)Nc1cccc(C(=O)N2CCCCC2)c1` (configuration not stated): the cell number change is 6.64%.

`O=[N+]([O-])c1cc(C(F)(F)F)cc([N+](=O)[O-])c1NCCCNc1ccc([N+](=O)[O-])c2cccnc12`: the cell number change is -40.4%. The AC50 under setting [1] was 23.1 µM [falling, single point]. Besides, the concentration at half-maximal activity (AC50) under setting [2] is 18.4 µM [falling, partial curve]. On to `Cc1cc(C)c(C)c(S(=O)(=O)N2CCN(C(=O)CNC(=O)c3ccco3)CC2)c1C`, for which the cell number change worked out at 4.37%. The concentration at half-maximal activity (AC50) under setting [2] was 8.2 µM [rising, partial curve]. In the case of `COc1cc(C(C#N)N2CCOCC2)ccc1O` (configuration not stated), the cell number change was -8.31%.

As for `Cc1ccc(OCC(=O)NNC(=O)CSC(=S)N2CCCC2)cc1`, the cell number change was -92.2%. In addition, the AC50 under setting [1] is 20.6 µM [falling, single point]. Further, the half-maximal activity concentration (AC50) under setting [2] was 29.1 µM [rising, single point]. Turning to `COc1ccc(CCNC(C)=O)cc1`, the cell number change is 1.11%. Further, the concentration at half-maximal activity (AC50) under setting [2] was 0.146 µM [falling, full curve, poor fit]. With `Cc1nn(C(=O)CCC(=O)NCCc2ccccc2)c2ccccc12`, the concentration at half-maximal activity (AC50) under setting [1] was 0.082 µM [rising, full curve, poor fit].

In the case of `CCC(C)c1ccc(NC(=O)COC(=O)c2nc3nccc(C)n3n2)cc1` (configuration not stated), the cell number change is 21.9%. In addition, under setting [2], the AC50 was 0.631 µM [rising, full curve, poor fit]. On to `CC(NC(=O)NC(=O)c1ccc(Cl)cc1)c1ccccc1` (configuration not stated), for which the cell number change was -19.3%. Besides, under setting [2], the AC50 was 29.1 µM [rising, single point]. `Cc1ccc2cc(CN(c3ccccc3)S(=O)(=O)c3ccccc3)c(=O)[nH]c2c1`: the cell number change was 9.93%. As to `O=C(N/N=C/c1cc(Br)c(O)c(Br)c1O)c1ccc2c(c1)OCCO2`, the cell number change turned out to be 5.88%. Further, under setting [2], the concentration at half-maximal activity (AC50) was 0.206 µM [rising, single point]. On to `CS(=O)(=O)N(CC(=O)N1CCOCC1)c1ccccc1`, for which the cell number change is -1.92%. Further, the concentration at half-maximal activity (AC50) under setting [2] was 20.6 µM [rising, single point]. For `CN1C(=O)/C(=C\C(=O)c2cccs2)c2ccccc21`, the cell number change is -31.5%. Besides, under setting [1], the AC50 was 7.31 µM [falling, single point].

For the molecule `CC(CNC(=O)CCc1nnc(CCC2CCCCC2)o1)c1ccccc1` (configuration not stated), the cell number change was -29.8%. The AC50 under setting [2] was 18.4 µM [falling, partial curve]. In the case of `COc1ccc(C(C)NC(=S)NC2CCCCC2)cc1OC` (configuration not stated), the cell number change was 15.5%.

Consider `Cc1ccc(NC(=O)C(=O)NCCN2CCN(S(=O)(=O)c3ccccc3)CC2)cc1C`, for which the cell number change was 20.2%. The AC50 under setting [1] is 0.092 µM [falling, full curve, poor fit]. Consider `Cc1cc(C)n2nc(NCc3ccccc3)nc2n1`, for which the cell number change was determined as 5.23%. In the case of `CCOC(=O)c1cc(C)sc1NC(=S)Nc1ccccc1`, the cell number change is 34.8%. The AC50 under setting [1] was 8.2 µM [rising, partial curve, poor fit]. Further, the AC50 under setting [2] is 4.11 µM [rising, partial curve, poor fit].

Consider `O=C(Nc1cccc(Cl)c1N1CCOCC1)c1ccc([N+](=O)[O-])o1`, for which the cell number change came to 10.7%. Under setting [2], the AC50 is 0.184 µM [rising, full curve, poor fit].

For the molecule `CCN(CC)c1ccc(/C=N/NC(=O)c2ccco2)cc1`, the cell number change was 6.66%. Also, the half-maximal activity concentration (AC50) under setting [2] was 1.03 µM [rising, full curve, poor fit].

On to `NC(=O)C1CCN(C(=O)CCc2ccsc2)CC1`, for which the cell number change worked out at 10.8%. Further, under setting [2], the AC50 is 32.6 µM [rising, partial curve, poor fit].

For the molecule `COc1ccc(-c2c3c(nc4sc5c(=O)[nH]c(C)nc5c24)CCC3)cc1`, the cell number change is -10.8%. The concentration at half-maximal activity (AC50) under setting [2] is 1.3 µM [rising, partial curve]. Take `CC1(C)C(=O)OC(C(=O)c2ccccc2)C(C)(C)C1=O` (configuration not stated): the cell number change amounted to 3.5%. Moreover, the half-maximal activity concentration (AC50) under setting [2] was 0.146 µM [rising, full curve, poor fit]. In the case of `Cc1cc2c(cc(C(=O)O)n2C)s1`, the cell number change was found to be 8.85%. For the same molecule, the AC50 under setting [2] was 4.61 µM [falling, full curve, poor fit]. As to `CN(C)c1cc[n+](/C(C(=S)Nc2ccc(SC(F)F)cc2)=C(/[O-])c2ccccc2)cc1`, the cell number change was -9.34%. Also, the AC50 under setting [1] is 6.51 µM [rising, single point]. Also, under setting [2], the half-maximal activity concentration (AC50) was 6.51 µM [rising, single point].

As to `CCOC(=O)c1[nH]c2ccc(Br)cc2c1NC(=O)CCN1CCCC(C)(C)C1`, the cell number change stood at 15.4%. Under setting [2], the half-maximal activity concentration (AC50) was 29.1 µM [rising, single point]. Take `COc1cc(/C=N/n2nnnc2Nc2ccccc2)cc(OC)c1OC`: the cell number change was 9.94%. Further, the half-maximal activity concentration (AC50) under setting [2] was 1.03 µM [rising, full curve, poor fit]. As for `CCOC(=O)Cc1csc(NC(=O)COc2cccc(C)c2)n1`, the concentration at half-maximal activity (AC50) under setting [1] is 0.00461 µM [rising, full curve, poor fit]. In the case of `Cc1nn(C)cc1C(C(=O)NC1CCCCC1)N(C(=O)Cc1cccs1)c1ccc(F)cc1` (configuration not stated), the cell number change was -5.5%. Moreover, the concentration at half-maximal activity (AC50) under setting [1] was 1.03 µM [rising, partial curve]. Besides, under setting [2], the AC50 was 8.2 µM [falling, partial curve, poor fit].

On to `CC(C)Cn1c(CN2CCN(C)C(CCO)C2)nc2ccccc21` (configuration not stated), for which the cell number change was determined as 15.3%. The AC50 under setting [2] was 0.164 µM [rising, full curve, poor fit]. Turning to `CCc1ccccc1NC(=O)CCN1C(=O)c2ccccc2C1=O`, the AC50 was 0.326 µM [rising, full curve, poor fit] under setting [1] and 4.11 µM [rising, full curve, poor fit] under setting [2]. Regarding `CC(C)CNC(=O)c1cccc(NC(=O)C(C)Oc2ccccc2)c1` (configuration not stated), the cell number change was -30.3%. The AC50 under setting [1] is 29.1 µM [falling, single point].

As for `CCc1nc2ccccc2c(C(=O)OCC(=O)C(C)(C)C)c1C`, the cell number change came out at 11.2%.

Regarding `Cc1ccc(N2CC(C(=O)N(C)CC(=O)Nc3ccc(Cl)c(C(F)(F)F)c3)CC2=O)cc1` (configuration not stated), the cell number change was -45.4%. Also, the AC50 under setting [1] was 20.6 µM [falling, single point]. Besides, the AC50 under setting [2] was 18.4 µM [falling, single point]. Take `CC(C)c1ccc(NC(=O)C2CCN(S(=O)(=O)c3ccc4c(c3)NC(=O)CO4)CC2)cc1`: the cell number change is -12.5%. Under setting [1], the AC50 is 2.31 µM [rising, partial curve]. Besides, the AC50 under setting [2] was 0.13 µM [rising, full curve, poor fit]. As for `O=C1Nc2ccccc2/C1=N/N=C/c1cccc(O)c1`, the cell number change worked out at 8.06%. For the same molecule, the AC50 under setting [1] was 3.26 µM [falling, single point]. `COc1ccc(-c2noc(CNS(=O)(=O)c3ccccc3)n2)cc1`: the cell number change is 29.9%. Under setting [2], the AC50 was 35.5 µM [rising, single point]. Regarding `CCOC(=O)C1CCN(C2CCN(Cc3nc(-c4ccccc4)no3)CC2)CC1`, the cell number change was -6.12%. In addition, the concentration at half-maximal activity (AC50) under setting [2] is 3.26 µM [falling, full curve, poor fit]. On to `CC1(C)C(C=C(Cl)Cl)C1C(=O)OCc1cccc(Oc2ccccc2)c1` (configuration not stated), for which the cell number change is 36.1%. Besides, under setting [2], the AC50 was 4.61 µM [rising, partial curve, poor fit]. As for `CC1CCCC(NC(=O)c2n[nH]c(=O)c3ccccc23)C1C` (configuration not stated), the cell number change worked out at 8.62%. In addition, the AC50 under setting [1] was 6.51 µM [rising, partial curve, poor fit]. Moreover, the half-maximal activity concentration (AC50) under setting [2] is 6.51 µM [rising, partial curve]. Regarding `Cc1cc(C(=O)COc2ccccc2C(N)=O)c(C)n1C`, the cell number change was determined as 30.3%. Also, under setting [1], the AC50 is 29.1 µM [rising, single point].

Regarding `COc1ccc(CNC(=O)c2cc(SC)ccc2Cl)cc1OC`, the cell number change came out at 10.5%. Moreover, under setting [2], the concentration at half-maximal activity (AC50) was 0.164 µM [rising, full curve]. On to `Cc1ccc(C)[n+](CC(=O)c2ccc(-c3ccccc3)cc2)c1`, for which the cell number change was -38.3%. The half-maximal activity concentration (AC50) under setting [1] is 23.1 µM [falling, single point]. Moreover, the concentration at half-maximal activity (AC50) under setting [2] is 18.4 µM [falling, single point].

In the case of `COc1ccc(OC)c(NC(=O)CCC(=O)Nc2nnc(C(F)(F)F)s2)c1`, the cell number change is 50.6%. Also, the concentration at half-maximal activity (AC50) under setting [1] was 18.4 µM [rising, partial curve]. As to `Cc1cccc(-c2oc3ccc(-c4ccc5c(c4)OCO5)cc3c2C(=O)OCc2ccc(O)cc2)c1`, the cell number change worked out at 32.6%. Besides, the AC50 under setting [1] was 1.64 µM [rising, partial curve, poor fit].

Consider `Cn1cnnc1SCC(=O)NCCc1ccccc1`, for which the cell number change was found to be 25.1%. `C/C(=N\NC(=O)c1nnn(-c2nonc2N)c1-c1cccs1)c1cccnc1`: the cell number change came to 7.31%. Under setting [1], the half-maximal activity concentration (AC50) was 4.11 µM [rising, single point]. As for `COc1cc(OC)cc(-c2c(-c3ccc(F)cc3)c3cc(-c4ccc5cc[nH]c5c4)ccc3n2C)c1`, the cell number change amounted to 10%. Under setting [1], the AC50 was 6.51 µM [falling, single point]. Besides, under setting [2], the half-maximal activity concentration (AC50) is 0.517 µM [rising, single point].
